According to article PMC11372060, “Two KaiABC systems control circadian oscillations in one cyanobacterium” (Nature Communications, 2024):
Results are given in words; binding and its absence hold for the method and conditions named. Tags and fused reporters may be left off the sequences shown.

Molecular target: KaiA3 (Sll0485), yeast two-hybrid fusion (Synechocystis sp. PCC 6803)
Assay: two-hybrid; AH109 yeast; GAL4 AD and BD fusions; growth on CSM -Leu -Trp -His with 12.5 mM 3-amino-1,2,4-triazole, 6 days at 30 °C

B1: KaiC1, yeast two-hybrid fusion (protein, UniProt P74646 1-519)
chain: MNLPIVNERNRPDVPRKGVQKIRTVIEGFDEITHGGLPIGRTTLVSGTSGTGKTLLAVQFLYQGIHHFDYPGLFITFEESPSDIIENAYSFGWDLQQLIDDGKLFILDASPDPEGQEVVGTFDLSALIERIQYAVRKYKAKLVSIDSVTAVFQQYDAASVVRREIFRLVARLKQLQVTSIMTTERVEEYGPIARFGVEEFVSDNVVVLRNVLEGERRRRTVEILKLRGTTHMKGEYPFTITHDGINIFPLGAMRLTQRSSNARISSGVQTLDEMCGGGFFKDSIILATGATGTGKTLLVSKFLQEGCRQRERAILFAYEESRAQLSRNASSWGIDFEEMEHKGLLKLLCTYPESAGLEDHLQMIKSEISEFKPSRIAIDSLSALARGVTNNAFRQFVIGVTGYAKQEEITGFFTNTTDQFMGAHSITESHISTITDTILMLQYVEIRGEMSRALNVFKMRGSWHDKGIREYSISHDGPDIRDSFRNYERIISGSPTRISVDEKSELSRIVRGVKDKTAE
For B1, the binding was “no binding”.
